Results deposited as PubChem BioAssay AID652272 (Drosophila RNAi Screening Center, 2013).
The deposit covers about 21,000 reagents; shown is a random part of those with a known target gene and a result. Of all reagents, 503 (2.4%) were called active. 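Raw plate light values, not normalised; calls rest on replicate z-scores that were not deposited; hits include reporter decreases as well as increases.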 Not stated in the record: the amount of reagent, the time to read-out.

- Aim: 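Finding fly genes that regulate Hedgehog signal transduction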 (primary screen)
- System: Drosophila clone 8 (Cl8) cells
- Knock-down reagent: long dsRNA against Drosophila genes
- Measured: 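Plate reader light from a firefly reporter under a ptc promoter fragment that responds to Hedgehog, with Renilla light as transfection reference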
- Reading the numbers: firefly Hh reporter signal: higher = more ptc reporter light; Renilla reference signal: higher = more Renilla control light
- Call rule: 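Hit when the z-score averaged over two replicates is under -2 or over +3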
- Meaning of the calls: active = hit: reporter lowered or raised; inactive = not a hit

{"Gene":"CG34376 (GeneID 42638)","dsRNA":"DRSC14695","firefly Hh reporter signal, replicate 1":3.67e5,"firefly Hh reporter signal, replicate 2":1.57e5,"Renilla reference signal, replicate 1":22693,"Renilla reference signal, replicate 2":416,"Call":"inactive"}
{"Gene":"CG34376 (GeneID 42638)","dsRNA":"DRSC14696","firefly Hh reporter signal, replicate 1":5.15e5,"firefly Hh reporter signal, replicate 2":1.54e5,"Renilla reference signal, replicate 1":32716,"Renilla reference signal, replicate 2":440,"Call":"inactive"}
{"Gene":"CG34376 (GeneID 42638)","dsRNA":"DRSC14701","firefly Hh reporter signal, replicate 1":3.09e5,"firefly Hh reporter signal, replicate 2":1.69e5,"Renilla reference signal, replicate 1":17824,"Renilla reference signal, replicate 2":423,"Call":"inactive"}
{"Gene":"rdx (GeneID 41704)","dsRNA":"DRSC14526","firefly Hh reporter signal, replicate 1":43245,"firefly Hh reporter signal, replicate 2":63321,"Renilla reference signal, replicate 1":1176,"Renilla reference signal, replicate 2":1936,"Call":"inactive"}
{"Gene":"rdx (GeneID 41704)","dsRNA":"DRSC16580","firefly Hh reporter signal, replicate 1":75010,"firefly Hh reporter signal, replicate 2":1.15e5,"Renilla reference signal, replicate 1":1400,"Renilla reference signal, replicate 2":1956,"Call":"active"}
{"Gene":"cmb (GeneID 39513)","dsRNA":"DRSC09790","firefly Hh reporter signal, replicate 1":55472,"firefly Hh reporter signal, replicate 2":34744,"firefly Hh reporter signal, replicate 3":60848,"Renilla reference signal, replicate 1":2992,"Renilla reference signal, replicate 2":4426,"Call":"inactive"}
{"Gene":"CG7691 (GeneID 42228)","dsRNA":"DRSC16287","firefly Hh reporter signal, replicate 1":7.53e5,"firefly Hh reporter signal, replicate 2":87664,"Renilla reference signal, replicate 1":35301,"Renilla reference signal, replicate 2":2848,"Call":"inactive"}
{"Gene":"dup (GeneID 47121)","dsRNA":"DRSC07088","firefly Hh reporter signal, replicate 1":37706,"firefly Hh reporter signal, replicate 2":33111,"Renilla reference signal, replicate 1":1095,"Renilla reference signal, replicate 2":2392,"Call":"inactive"}

2 entries from above, reformatted.
CG34376 (GeneID 42638) [DRSC14701]
- firefly Hh reporter signal, replicate 1: 3.09e5
- firefly Hh reporter signal, replicate 2: 1.69e5
- Renilla reference signal, replicate 1: 17824
- Renilla reference signal, replicate 2: 423
- Call: inactive

rdx (GeneID 41704) [DRSC14526]
- firefly Hh reporter signal, replicate 1: 43245
- firefly Hh reporter signal, replicate 2: 63321
- Renilla reference signal, replicate 1: 1176
- Renilla reference signal, replicate 2: 1936
- Call: inactive

Further records:
{"Gene":"mRpL48 (GeneID 33348)","dsRNA":"DRSC00506","firefly Hh reporter signal, replicate 1":1.61e5,"firefly Hh reporter signal, replicate 2":1.26e5,"Renilla reference signal, replicate 1":3723,"Renilla reference signal, replicate 2":3466,"Call":"inactive"}
{"Gene":"Cat (GeneID 40048)","dsRNA":"DRSC11110","firefly Hh reporter signal, replicate 1":90377,"Renilla reference signal, replicate 1":3093,"Renilla reference signal, replicate 2":1917,"Call":"inactive"}
{"Gene":"Tsp42Ep (GeneID 35626)","dsRNA":"DRSC06871","firefly Hh reporter signal, replicate 1":95808,"firefly Hh reporter signal, replicate 2":67330,"Renilla reference signal, replicate 1":4025,"Renilla reference signal, replicate 2":3033,"Call":"inactive"}
{"Gene":"CG43254 (GeneID 12798054)","dsRNA":"DRSC12638","firefly Hh reporter signal, replicate 1":2.03e5,"Renilla reference signal, replicate 1":4560,"Call":"inactive"}
